Where two headings read alike, the source gives them in different places.
Legend:
[1] = tested on: young rats; details: cited from earlier work
[2] = tested on: Hy-Line W-36 White Leghorn hens; details: for Feed Intake: day 22 to day 28
Experimental: Experiment 1. […] While acknowledging that injecting individual hens is commercially impractical (Webster, 2003), nevertheless an initial study was needed to establish the efficacy of T4 when it is delivered directly into the hens in precisely measured doses. The photoperiod was 17 hours of light per day (0330 hours to 2030 hours).

[3] = tested on: Hy-Line W-36 White Leghorn hens
From the text: Experiment 3. […] The photoperiod serves as the primary environmental signal that regulates reproductive function in many avian species. Increasing the photoperiod promotes maturation of the gonads and reproductive tract, whereas reducing the photoperiod causes the gonads and reproductive tract to regress and molting to occur.

[4] = tested on: Hy-Line W-36 White Leghorn hens; remark: listed apart in the source
Experimental: Experiment 2. […] The photoperiod was 17 hours of light per day (0330 hours to 2030 hours).
The objective was to use T4 to humanely induce molting in hens that are continuously provided with ad libitum access to palatable feed meeting or exceeding all National Research Council (1994) standards. Developing a fully efficacious yet affordable molting protocol was predicated on determining the minimum effective level for T4 supplementation. Factors that potentially may affect the required level of T4 supplementation include: (1) uncertainty regarding the efficiency of T4 absorption by the gastrointestinal tract, (2) the possibility that continuous dietary ingestion of T4 could trigger substantially different biological responses when compared single daily injections, and (3) the likelihood that daily T4 intake would diminish in parallel with molt-related reductions in feed intake associated with cessation in egg production. A spontaneous and voluntary loss of appetite (anorexia) commonly accompanies seasonal molting and broodiness in a variety of avian species (Berry, 2003; Webster, 2003). Accordingly, the responses of hens to diets containing 10, 20, and 40 mg T4/kg, to bracket the anticipated range of T4 needed to cause an effective molt, were determined.

[5] = 20 mg/kg of feed 12 d from day 13, 8 hr light, Day 30-34
[6] = 20 mg/kg of feed 12 d from day 13, 8 hr light, Days 13-15
[7] = 20 mg/kg of feed 12 d from day 13, 8 hr light, Days 16-22
[8] = 20 mg/kg of feed 12 d from day 13, 17 hr light, Day 30-34
[9] = 20 mg/kg of feed 12 d from day 13, 17 hr light, Days 13-15
[10] = 20 mg/kg of feed 12 d from day 13, 17 hr light, Days 16-22
[11] = 40 mg/kg of feed 12 d from day 13, 8 hr light, Day 30-34
[12] = 40 mg/kg of feed 12 d from day 13, 8 hr light, Days 13-15
[13] = 40 mg/kg of feed 12 d from day 13, 8 hr light, Days 16-22
[14] = 40 mg/kg of feed 12 d from day 13, 17 hr light, Day 30-34
[15] = 40 mg/kg of feed 12 d from day 13, 17 hr light, Days 13-15
[16] = 40 mg/kg of feed 12 d from day 13, 17 hr light, Days 16-22
[17] = 10 mg/kg of feed 6 d from day 5, Day 11-14
[18] = 10 mg/kg of feed 6 d from day 5, Days 5-7
[19] = 10 mg/kg of feed 6 d from day 5, Days 8-10
[20] = 10 mg/kg of feed 10 d from day 5, Day 11-14
[21] = 10 mg/kg of feed 10 d from day 5, Days 5-7
[22] = 10 mg/kg of feed 10 d from day 5, Days 8-10
[23] = 20 mg/kg of feed 6 d from day 5, Day 11-14
[24] = 20 mg/kg of feed 6 d from day 5, Days 5-7
[25] = 20 mg/kg of feed 6 d from day 5, Days 8-10
[26] = 20 mg/kg of feed 10 d from day 5, Day 11-14
[27] = 20 mg/kg of feed 10 d from day 5, Days 5-7
[28] = 20 mg/kg of feed 10 d from day 5, Days 8-10
[29] = 40 mg/kg of feed 6 d from day 5, Day 11-14
[30] = 40 mg/kg of feed 6 d from day 5, Days 5-7
[31] = 40 mg/kg of feed 6 d from day 5, Days 8-10
[32] = 40 mg/kg of feed 10 d from day 5, Day 11-14
[33] = 40 mg/kg of feed 10 d from day 5, Days 5-7
[34] = 40 mg/kg of feed 10 d from day 5, Days 8-10

N[C@@H](Cc1cc(I)c(Oc2cc(I)c(O)c(I)c2)c(I)c1)C(=O)O [L-thyroxine, 3,5,3′,5′-tetraiodo-L-thyronine]
Magnesium content of the blood serum ([1]; 2 mg L-thyroxine/kg diet, 200 mg magnesium/kg, fell from 1.87): 0.50 mg % | Serum magnesium ([1]; thyroxine diet with high magnesium (1,600 mg/kg)): 1.67 mg % | Feed Intake ([2]; 250 mcg/kg body wt i.m. 12 d): 58.7 g/hen/day | Feed Intake ([2]; 500 mcg/kg body wt i.m. 8 d): 52.3 g/hen/day | Feed Intake ([2]; 1,000 mcg/kg body wt i.m. 8 d): 31.4 g/hen/day | Feed Intake ([2]; 2,000 mcg/kg body wt i.m. 3 d): 20.2 g/hen/day | Feed Intake ([2]; 4,000 mcg/kg body wt i.m. 3 d): 11.7 g/hen/day | Feed intake compared with Saline-injected controls ([2]; hens injected with ≧500 μg T4): significantly lower | Feed consumption (FC) [3, 5]: 82.5 g/hen/d | Feed consumption change from days 1-12 (% FCC) [3, 5]: −32.0% | Feed consumption (FC) ([3]; 20 mg/kg of feed 12 d from day 13, 8 hr light, Days 1-12): 121.3 g/hen/d | Feed consumption (FC) [3, 6]: 41.8 g/hen/d | Feed consumption change from days 1-12 (% FCC) [3, 6]: −65.5% | Feed consumption (FC) [3, 7]: 44.5 g/hen/d | Feed consumption change from days 1-12 (% FCC) [3, 7]: −63.3% | Feed consumption (FC) [3, 8]: 135.0 g/hen/d | Feed consumption change from days 1-12 (% FCC) [3, 8]: 11.1% | Feed consumption (FC) ([3]; 20 mg/kg of feed 12 d from day 13, 17 hr light, Days 1-12): 121.5 g/hen/d | Feed consumption (FC) [3, 9]: 58.0 g/hen/d | Feed consumption change from days 1-12 (% FCC) [3, 9]: −52.3% | Feed consumption (FC) [3, 10]: 51.8 g/hen/d | Feed consumption change from days 1-12 (% FCC) [3, 10]: −57.4% | Feed consumption (FC) [3, 11]: 104.8 g/hen/d | Feed consumption change from days 1-12 (% FCC) [3, 11]: −9.5% | Feed consumption (FC) ([3]; 40 mg/kg of feed 12 d from day 13, 8 hr light, Days 1-12): 115.8 g/hen/d | Feed consumption (FC) [3, 12]: 36.8 g/hen/d | Feed consumption change from days 1-12 (% FCC) [3, 12]: −68.2% | Feed consumption (FC) [3, 13]: 35.3 g/hen/d | Feed consumption change from days 1-12 (% FCC) [3, 13]: −69.5% | Feed consumption (FC) [3, 14]: 93.3 g/hen/d | Feed consumption change from days 1-12 (% FCC) [3, 14]: −9.7% | Feed consumption (FC) ([3]; 40 mg/kg of feed 12 d from day 13, 17 hr light, Days 1-12): 103.3 g/hen/d | Feed consumption (FC) [3, 15]: 42.0 g/hen/d | Feed consumption change from days 1-12 (% FCC) [3, 15]: −59.3% | Feed consumption (FC) [3, 16]: 37.5 g/hen/d | Feed consumption change from days 1-12 (% FCC) [3, 16]: −63.7% | Feed consumption (FC) [4, 17]: 81.3 g/hen/d | Feed consumption change from days 2-4 (% FCC) [4, 17]: −19.7% | Feed consumption (FC) ([4]; 10 mg/kg of feed 6 d from day 5, Days 2-4): 101.3 g/hen/d | Feed consumption (FC) [4, 18]: 60.0 g/hen/d | Feed consumption change from days 2-4 (% FCC) [4, 18]: −40.8% | Feed consumption (FC) [4, 19]: 35.3 g/hen/d | Feed consumption change from days 2-4 (% FCC) [4, 19]: −65.2% | Feed consumption (FC) [4, 20]: 47.3 g/hen/d | Feed consumption change from days 2-4 (% FCC) [4, 20]: −43.7% | Feed consumption (FC) ([4]; 10 mg/kg of feed 10 d from day 5, Days 2-4): 84.0 g/hen/d | Feed consumption (FC) [4, 21]: 56.0 g/hen/d | Feed consumption change from days 2-4 (% FCC) [4, 21]: −33.3% | Feed consumption (FC) [4, 22]: 33.7 g/hen/d | Feed consumption change from days 2-4 (% FCC) [4, 22]: −59.9% | Feed consumption (FC) [4, 23]: 73.7 g/hen/d | Feed consumption change from days 2-4 (% FCC) [4, 23]: −28.4% | Feed consumption (FC) ([4]; 20 mg/kg of feed 6 d from day 5, Days 2-4): 103.0 g/hen/d | Feed consumption (FC) [4, 24]: 42.0 g/hen/d | Feed consumption change from days 2-4 (% FCC) [4, 24]: −59.2% | Feed consumption (FC) [4, 25]: 33.7 g/hen/d | Feed consumption change from days 2-4 (% FCC) [4, 25]: −67.3% | Feed consumption (FC) [4, 26]: 32.7 g/hen/d | Feed consumption change from days 2-4 (% FCC) [4, 26]: −72.9% | Feed consumption (FC) ([4]; 20 mg/kg of feed 10 d from day 5, Days 2-4): 120.7 g/hen/d | Feed consumption (FC) [4, 27]: 54.7 g/hen/d | Feed consumption change from days 2-4 (% FCC) [4, 27]: −54.7% | Feed consumption (FC) [4, 28]: 30.0 g/hen/d | Feed consumption change from days 2-4 (% FCC) [4, 28]: −75.1% | Reduction of feed intake ([4]; 40 mg T4/kg test diet for 10 days): approximately 85% | Feed consumption (FC) [4, 29]: 46.7 g/hen/d | Feed consumption change from days 2-4 (% FCC) [4, 29]: −52.5% | Feed consumption (FC) ([4]; 40 mg/kg of feed 6 d from day 5, Days 2-4): 98.3 g/hen/d | Feed consumption (FC) [4, 30]: 36.7 g/hen/d | Feed consumption change from days 2-4 (% FCC) [4, 30]: −62.7% | Feed consumption (FC) [4, 31]: 13.7 g/hen/d | Feed consumption change from days 2-4 (% FCC) [4, 31]: −86.1% | Feed consumption (FC) [4, 32]: 19.3 g/hen/d | Feed consumption change from days 2-4 (% FCC) [4, 32]: −83.4% | Feed consumption (FC) ([4]; 40 mg/kg of feed 10 d from day 5, Days 2-4): 116.3 g/hen/d | Feed consumption (FC) [4, 33]: 37.3 g/hen/d | Feed consumption change from days 2-4 (% FCC) [4, 33]: −67.9% | Feed consumption (FC) [4, 34]: 22.0 g/hen/d | Feed consumption change from days 2-4 (% FCC) [4, 34]: −81.1%
